Holding throughout (assay): affinity purification with mass spectrometry; SF-TAP-tagged bait overexpressed in HEK293T; lysis in 0.5% NP-40 in TBS (30 mM Tris-HCl pH 7.4, 150 mM NaCl); two steps at 4 °C: Strep-Tactin superflow (desthiobiotin elution), then anti-FLAG M2 agarose (FLAG peptide elution); LC-MS/MS; interactions scored by socioaffinity
One test addresses T1, IFT80 (human) (UniProt Q9P2H3).
T1 sequence: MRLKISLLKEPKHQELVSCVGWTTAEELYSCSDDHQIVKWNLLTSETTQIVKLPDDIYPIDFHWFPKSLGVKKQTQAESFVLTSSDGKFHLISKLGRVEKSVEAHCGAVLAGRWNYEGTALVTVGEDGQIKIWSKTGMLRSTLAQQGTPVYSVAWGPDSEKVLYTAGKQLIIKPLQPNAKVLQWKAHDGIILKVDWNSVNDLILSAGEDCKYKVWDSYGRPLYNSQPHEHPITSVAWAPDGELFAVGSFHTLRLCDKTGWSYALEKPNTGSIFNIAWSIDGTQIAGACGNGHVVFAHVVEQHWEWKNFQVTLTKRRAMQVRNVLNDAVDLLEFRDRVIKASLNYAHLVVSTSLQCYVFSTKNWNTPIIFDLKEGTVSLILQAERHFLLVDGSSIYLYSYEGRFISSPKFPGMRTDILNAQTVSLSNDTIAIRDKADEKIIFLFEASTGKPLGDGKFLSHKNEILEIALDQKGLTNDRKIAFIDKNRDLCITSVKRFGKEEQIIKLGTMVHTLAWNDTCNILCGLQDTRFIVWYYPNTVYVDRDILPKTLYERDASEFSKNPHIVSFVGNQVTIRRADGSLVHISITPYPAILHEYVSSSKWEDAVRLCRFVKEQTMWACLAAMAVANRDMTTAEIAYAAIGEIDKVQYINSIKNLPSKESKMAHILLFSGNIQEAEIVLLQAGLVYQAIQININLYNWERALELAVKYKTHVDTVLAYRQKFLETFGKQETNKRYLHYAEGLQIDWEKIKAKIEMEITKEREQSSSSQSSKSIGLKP

Protein sequences, listed by entry. Tags and fused reporters are not part of them.
UniProt O94967: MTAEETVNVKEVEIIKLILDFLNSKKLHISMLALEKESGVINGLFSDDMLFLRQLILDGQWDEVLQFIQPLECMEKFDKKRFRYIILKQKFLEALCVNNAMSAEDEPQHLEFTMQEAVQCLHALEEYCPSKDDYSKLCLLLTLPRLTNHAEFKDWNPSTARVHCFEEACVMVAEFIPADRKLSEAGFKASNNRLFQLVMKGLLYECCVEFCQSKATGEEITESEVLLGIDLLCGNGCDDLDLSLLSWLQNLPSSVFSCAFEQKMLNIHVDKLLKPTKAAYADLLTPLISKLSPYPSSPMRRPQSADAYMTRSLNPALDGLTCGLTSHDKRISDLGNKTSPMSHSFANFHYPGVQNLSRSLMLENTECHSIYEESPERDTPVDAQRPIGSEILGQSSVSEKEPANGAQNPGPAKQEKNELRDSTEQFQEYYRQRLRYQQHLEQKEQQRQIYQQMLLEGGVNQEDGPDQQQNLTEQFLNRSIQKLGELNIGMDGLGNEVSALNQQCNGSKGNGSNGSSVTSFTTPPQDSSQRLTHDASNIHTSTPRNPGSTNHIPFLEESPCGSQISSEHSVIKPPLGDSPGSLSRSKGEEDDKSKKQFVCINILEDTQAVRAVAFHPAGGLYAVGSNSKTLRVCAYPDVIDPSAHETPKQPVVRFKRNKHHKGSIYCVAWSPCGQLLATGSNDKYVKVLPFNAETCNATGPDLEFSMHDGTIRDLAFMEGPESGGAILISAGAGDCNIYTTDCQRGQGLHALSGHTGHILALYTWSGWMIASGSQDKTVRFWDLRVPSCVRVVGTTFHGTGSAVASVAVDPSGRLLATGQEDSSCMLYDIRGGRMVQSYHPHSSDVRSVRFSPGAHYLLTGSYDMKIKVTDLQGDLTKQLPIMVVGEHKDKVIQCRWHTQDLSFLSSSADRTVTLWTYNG
UniProt Q9Y266: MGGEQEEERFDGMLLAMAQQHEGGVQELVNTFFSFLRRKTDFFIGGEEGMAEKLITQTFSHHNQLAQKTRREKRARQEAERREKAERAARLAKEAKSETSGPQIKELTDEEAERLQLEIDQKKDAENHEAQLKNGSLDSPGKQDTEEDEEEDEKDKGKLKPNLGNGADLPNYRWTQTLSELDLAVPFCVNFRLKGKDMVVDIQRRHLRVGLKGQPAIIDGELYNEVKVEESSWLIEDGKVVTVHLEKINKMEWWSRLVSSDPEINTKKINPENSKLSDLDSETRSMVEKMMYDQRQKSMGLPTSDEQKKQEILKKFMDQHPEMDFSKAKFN

For another test, the target named is T2, WDR35 (human) (UniProt Q9P2L0).
T2 sequence: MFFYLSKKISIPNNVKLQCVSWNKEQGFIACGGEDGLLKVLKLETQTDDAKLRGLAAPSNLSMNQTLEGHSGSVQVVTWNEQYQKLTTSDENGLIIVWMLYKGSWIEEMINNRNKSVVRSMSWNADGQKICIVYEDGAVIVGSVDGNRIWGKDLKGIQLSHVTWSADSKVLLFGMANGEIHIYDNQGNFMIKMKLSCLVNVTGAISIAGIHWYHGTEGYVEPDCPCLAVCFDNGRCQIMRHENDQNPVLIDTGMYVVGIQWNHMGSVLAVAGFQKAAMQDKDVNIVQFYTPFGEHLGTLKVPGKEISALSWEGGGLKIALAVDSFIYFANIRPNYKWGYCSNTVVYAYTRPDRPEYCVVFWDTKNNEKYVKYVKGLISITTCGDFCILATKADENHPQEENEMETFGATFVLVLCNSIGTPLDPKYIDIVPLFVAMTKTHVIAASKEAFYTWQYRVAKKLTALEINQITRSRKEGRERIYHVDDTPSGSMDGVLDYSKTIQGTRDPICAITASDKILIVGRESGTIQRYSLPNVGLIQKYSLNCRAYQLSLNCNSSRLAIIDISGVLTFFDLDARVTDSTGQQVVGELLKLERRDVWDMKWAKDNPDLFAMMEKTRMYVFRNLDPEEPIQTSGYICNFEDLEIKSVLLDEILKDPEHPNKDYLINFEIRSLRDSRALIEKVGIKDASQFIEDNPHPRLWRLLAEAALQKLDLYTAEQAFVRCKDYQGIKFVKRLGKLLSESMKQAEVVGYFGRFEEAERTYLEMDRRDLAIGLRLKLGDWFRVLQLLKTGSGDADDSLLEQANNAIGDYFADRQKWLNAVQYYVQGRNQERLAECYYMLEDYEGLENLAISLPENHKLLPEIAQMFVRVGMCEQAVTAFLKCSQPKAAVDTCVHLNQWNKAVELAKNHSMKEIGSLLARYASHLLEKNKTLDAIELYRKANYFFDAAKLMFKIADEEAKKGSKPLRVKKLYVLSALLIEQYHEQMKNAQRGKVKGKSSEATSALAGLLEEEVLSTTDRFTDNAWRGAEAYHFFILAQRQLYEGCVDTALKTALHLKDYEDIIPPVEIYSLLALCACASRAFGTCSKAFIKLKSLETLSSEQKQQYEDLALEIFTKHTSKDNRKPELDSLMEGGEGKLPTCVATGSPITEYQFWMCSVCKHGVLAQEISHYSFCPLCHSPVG

In the next test the target is WDR47 (human) (UniProt O94967).

These are yes or no findings as the source states them, for the method shown. In cells and extracts the contact can be indirect. These calls come from enrichment with a bait or labelling near it, and not all partners need be listed. For part of these data: A no says only that the protein was not detected with the bait.

With NUDC (from UniProt Q9Y266 1-331), the binding entry with IFT80 (human) is listed as “binds”; in the test with WDR35 (human) it was “binds”; with WDR47 (human), “no binding”.

The values are drawn from PMC4869170.
